PubChem BioAssay AID720591 (Broad Institute, 2013)
The whole screen tested about 1,200 compounds, of which about 60 (5%) were called active. Inconclusive results (about 1%) are left out.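 The calls were made as follows: active = Decreasing signal and fitted IC50 at most twice the top valid tested dose; inconclusive = Bad fit or a level curve showing 30 to 70% inhibition; inactive = the rest.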 The list shows a part of the results. Results with a measured potency or affinity are listed apart.

Sequences of proteins named here, by UniProt entry; tags and fusion partners are left off. A change or cut given only in a name is not applied to a line headed by its entry.
UniProt Q9NXA8: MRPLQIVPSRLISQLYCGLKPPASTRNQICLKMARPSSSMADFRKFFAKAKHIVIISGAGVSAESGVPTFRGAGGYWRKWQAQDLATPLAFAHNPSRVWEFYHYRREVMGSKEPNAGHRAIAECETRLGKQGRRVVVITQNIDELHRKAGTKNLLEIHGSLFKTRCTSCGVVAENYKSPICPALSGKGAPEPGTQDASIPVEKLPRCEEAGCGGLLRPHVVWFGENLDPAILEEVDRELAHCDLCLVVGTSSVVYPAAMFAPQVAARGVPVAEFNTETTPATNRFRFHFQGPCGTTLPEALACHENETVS

biological target: NAD-dependent protein deacylase sirtuin-5, mitochondrial (Homo sapiens) (UniProt Q9NXA8); assay: sirtuin-5 deacylation blockers, concentration series – biochemical, fluorescence imaging, cherry-pick, set 5, dose response (AID 720591); details: Purified SirT5, succinyl-peptide AMC, trypsin-coupled fluorescence; at 15 µM (top of the series) unless noted;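 also: 0% = median of neutral control wells and -100% = median of positive control wells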

Activity change, negative = inhibition, inactive:
CCOc1cc(C)ccc1OCc1nnc(SCC(=O)Nc2cccc(C(=O)O)c2)n1-c1ccccc1 -14.2%
Cc1oc(-c2ccc(Cl)cc2)nc1CN1CCCC(C(=O)N2CCOCC2)C1 (stereo unspecified) -27.5%
COCCCNc1nc2cc(OC)c(OC)cc2c2nc(-c3ccccc3)nn12 4.25%
COc1cc2c(cc1OC)C(c1c(Cl)cccc1Cl)NC(=O)C2 (stereo unspecified) -24.4%
Cc1ccc(S(=O)(=O)N2C[C@@H](C)[C@]3(C2)[C@H](O)[C@H](OC(=O)NCc2ccco2)C[C@H]2C(=O)N(c4ccccc4)C(=O)[C@H]23)cc1 -12.3%
C[C@@H]1CN([C@H](C)CO)C(=O)c2cc(NC(=O)Cc3ccccc3)ccc2O[C@H]1CN(C)Cc1ccc(Oc2ccccc2)cc1 -18.2%
COc1ncnc2c1ncn2CCCN1CCN(c2ccccn2)CC1 -21.8%
C[C@H](CO)N1C[C@H](C)[C@@H](CN(C)CC2CCCCC2)Oc2c(NS(=O)(=O)c3ccc(F)cc3)cccc2C1=O 5.13%
CC1(C(=O)Nc2cccc(C(F)(F)F)c2)Cc2c(-c3cccc(C(F)(F)F)c3)ccnc2O1 (stereo unspecified) -24%
C[C@H](CO)N1C[C@H](C)[C@@H](CN(C)S(=O)(=O)c2cccs2)Oc2ccc(NC(=O)CCC(F)(F)F)cc2C1=O -22%
COc1ccccc1-c1cc(C(=O)NC(C)C)no1 -1.51%
COc1cc(OC)c(NS(=O)(=O)c2cc(C(=O)OCC(=O)NCC3CCCO3)ccc2OC)cc1Cl (stereo unspecified) -26.7%
CCc1ccc(N(C(=O)CCC(=O)Nc2cc(C)on2)C(C(=O)NC2CCCC2)c2ccco2)cc1 (stereo unspecified) 8.88%
COc1cc2cc(C#N)c(SCC(=O)Nc3cc(C)on3)nc2cc1OC -3.85%
CC(=O)c1cccc(NC(=O)CCS(=O)(=O)c2ccc(Br)s2)c1 -17.1%
C[C@@H]1CN([C@H](C)CO)C(=O)CCCn2nncc2CO[C@H]1CN(C)C(=O)Nc1cccc2ccccc12 11.2%
CC1CCCN(C(=O)COC(=O)C2CCN(S(=O)(=O)c3c(Cl)cccc3Cl)CC2)C1 (stereo unspecified) 15.2%
O=C(Nc1ccc(F)cc1)C1CC(=O)n2ncnc2N1 (stereo unspecified) -19.7%
O=C(O)CCC(=O)Nc1ccc(-c2nc3ccc(C(=O)c4ccccc4)cc3[nH]2)cc1 -28.6%
CC(=O)Nc1ccc(S(=O)(=O)Nc2nc3ccccc3nc2Nc2ccc(C(=O)O)c(O)c2)cc1 -36%
Cc1ccccc1C(=O)c1cccn1CC(=O)NCc1ccccc1Cl -6.51%

Quoted at random: 2 records from the list
Activity change, negative = inhibition, inactive:
CC(=O)Nc1ccc(S(=O)(=O)Nc2nc3ccccc3nc2Nc2ccc(C(=O)O)c(O)c2)cc1 -36%
CC1(C(=O)Nc2cccc(C(F)(F)F)c2)Cc2c(-c3cccc(C(F)(F)F)c3)ccnc2O1 (stereo unspecified) -24%
